Assay results as given in publication PMC11241864.
No constants are given. Whether binding was seen depends on the method and setting. Binding seen in cells or lysates may run through a third protein. Some binding calls cover weakened binding; strength is not graded here.

Sequences of proteins named here, by UniProt entry; tags and fusion partners are left off.
UniProt Q61188: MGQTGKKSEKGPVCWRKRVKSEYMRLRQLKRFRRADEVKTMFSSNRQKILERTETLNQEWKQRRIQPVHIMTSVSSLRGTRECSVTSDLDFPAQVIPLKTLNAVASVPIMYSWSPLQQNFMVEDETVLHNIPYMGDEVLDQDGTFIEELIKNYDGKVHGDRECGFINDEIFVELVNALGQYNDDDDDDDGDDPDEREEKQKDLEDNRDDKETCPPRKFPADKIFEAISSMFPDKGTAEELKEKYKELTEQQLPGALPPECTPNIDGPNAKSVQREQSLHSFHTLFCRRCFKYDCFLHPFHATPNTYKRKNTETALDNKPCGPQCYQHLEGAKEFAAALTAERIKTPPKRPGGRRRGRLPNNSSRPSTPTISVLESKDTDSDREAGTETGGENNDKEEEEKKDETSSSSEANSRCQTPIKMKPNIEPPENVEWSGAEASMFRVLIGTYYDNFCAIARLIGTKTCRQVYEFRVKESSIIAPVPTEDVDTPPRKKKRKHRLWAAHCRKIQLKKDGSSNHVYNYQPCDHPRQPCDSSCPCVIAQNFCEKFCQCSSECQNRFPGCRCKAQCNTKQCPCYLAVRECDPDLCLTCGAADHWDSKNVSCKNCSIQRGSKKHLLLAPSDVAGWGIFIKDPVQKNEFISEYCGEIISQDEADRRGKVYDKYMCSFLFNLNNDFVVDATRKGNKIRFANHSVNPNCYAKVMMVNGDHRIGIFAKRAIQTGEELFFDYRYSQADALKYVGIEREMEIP

Target: T1, bromodomain protein 7 (BRD7) (mouse (endogenous in GC-1spg)) (UniProt O88665)
T1 sequence: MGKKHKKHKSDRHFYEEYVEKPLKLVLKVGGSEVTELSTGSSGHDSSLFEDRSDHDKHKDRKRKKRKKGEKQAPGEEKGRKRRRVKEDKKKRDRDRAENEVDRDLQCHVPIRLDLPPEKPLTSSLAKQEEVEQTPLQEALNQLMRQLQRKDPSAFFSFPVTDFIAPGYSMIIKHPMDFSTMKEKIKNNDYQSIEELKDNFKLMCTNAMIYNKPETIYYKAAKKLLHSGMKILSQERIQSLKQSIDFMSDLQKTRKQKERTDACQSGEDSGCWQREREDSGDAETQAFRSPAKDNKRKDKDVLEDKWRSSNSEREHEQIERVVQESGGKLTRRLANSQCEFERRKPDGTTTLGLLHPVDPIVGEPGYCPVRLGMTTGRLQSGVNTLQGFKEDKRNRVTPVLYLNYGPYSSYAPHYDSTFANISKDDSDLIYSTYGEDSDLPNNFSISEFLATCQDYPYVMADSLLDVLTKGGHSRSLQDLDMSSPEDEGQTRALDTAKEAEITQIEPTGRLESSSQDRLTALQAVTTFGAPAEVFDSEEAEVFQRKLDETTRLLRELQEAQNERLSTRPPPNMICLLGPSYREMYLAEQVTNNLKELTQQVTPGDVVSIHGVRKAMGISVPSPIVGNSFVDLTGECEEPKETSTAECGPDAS
Experiment: co-IP; 1 mg GC-1spg cell lysate (IP lysis buffer) incubated with anti-BRD7, anti-DNMT3a or normal IgG at 4 °C overnight; Protein A/G magnetic beads; eluates analysed by Western blotting

- binding: binds
Substance: EZH2 (from UniProt Q61188 1-746)
